Measured values from the supplement of paper PMC10849652.
The list shows a part of the results.

By UniProt entry, the sequences of proteins in these tests, tags left out. Where a name states a change or a piece, a line headed by the entry shows the natural chain unless it says otherwise.
UniProt P05412, whole entry, looked up: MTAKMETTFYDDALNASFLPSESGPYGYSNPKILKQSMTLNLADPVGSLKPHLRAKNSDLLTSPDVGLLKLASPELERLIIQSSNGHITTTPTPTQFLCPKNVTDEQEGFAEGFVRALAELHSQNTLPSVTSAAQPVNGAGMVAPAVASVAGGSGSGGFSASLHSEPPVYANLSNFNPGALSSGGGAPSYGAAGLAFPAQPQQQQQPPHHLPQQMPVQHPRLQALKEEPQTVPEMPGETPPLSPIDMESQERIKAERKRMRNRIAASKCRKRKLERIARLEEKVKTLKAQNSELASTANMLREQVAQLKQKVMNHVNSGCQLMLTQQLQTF
UniProt Q9H079: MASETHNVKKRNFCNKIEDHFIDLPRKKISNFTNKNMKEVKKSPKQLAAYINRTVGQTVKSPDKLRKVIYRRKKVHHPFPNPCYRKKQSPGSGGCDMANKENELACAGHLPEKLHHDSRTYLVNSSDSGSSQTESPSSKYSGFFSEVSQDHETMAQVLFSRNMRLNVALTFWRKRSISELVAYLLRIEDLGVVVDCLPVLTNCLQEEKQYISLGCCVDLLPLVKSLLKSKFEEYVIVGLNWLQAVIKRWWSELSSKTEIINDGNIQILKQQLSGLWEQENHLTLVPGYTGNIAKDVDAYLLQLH
UniProt O94854: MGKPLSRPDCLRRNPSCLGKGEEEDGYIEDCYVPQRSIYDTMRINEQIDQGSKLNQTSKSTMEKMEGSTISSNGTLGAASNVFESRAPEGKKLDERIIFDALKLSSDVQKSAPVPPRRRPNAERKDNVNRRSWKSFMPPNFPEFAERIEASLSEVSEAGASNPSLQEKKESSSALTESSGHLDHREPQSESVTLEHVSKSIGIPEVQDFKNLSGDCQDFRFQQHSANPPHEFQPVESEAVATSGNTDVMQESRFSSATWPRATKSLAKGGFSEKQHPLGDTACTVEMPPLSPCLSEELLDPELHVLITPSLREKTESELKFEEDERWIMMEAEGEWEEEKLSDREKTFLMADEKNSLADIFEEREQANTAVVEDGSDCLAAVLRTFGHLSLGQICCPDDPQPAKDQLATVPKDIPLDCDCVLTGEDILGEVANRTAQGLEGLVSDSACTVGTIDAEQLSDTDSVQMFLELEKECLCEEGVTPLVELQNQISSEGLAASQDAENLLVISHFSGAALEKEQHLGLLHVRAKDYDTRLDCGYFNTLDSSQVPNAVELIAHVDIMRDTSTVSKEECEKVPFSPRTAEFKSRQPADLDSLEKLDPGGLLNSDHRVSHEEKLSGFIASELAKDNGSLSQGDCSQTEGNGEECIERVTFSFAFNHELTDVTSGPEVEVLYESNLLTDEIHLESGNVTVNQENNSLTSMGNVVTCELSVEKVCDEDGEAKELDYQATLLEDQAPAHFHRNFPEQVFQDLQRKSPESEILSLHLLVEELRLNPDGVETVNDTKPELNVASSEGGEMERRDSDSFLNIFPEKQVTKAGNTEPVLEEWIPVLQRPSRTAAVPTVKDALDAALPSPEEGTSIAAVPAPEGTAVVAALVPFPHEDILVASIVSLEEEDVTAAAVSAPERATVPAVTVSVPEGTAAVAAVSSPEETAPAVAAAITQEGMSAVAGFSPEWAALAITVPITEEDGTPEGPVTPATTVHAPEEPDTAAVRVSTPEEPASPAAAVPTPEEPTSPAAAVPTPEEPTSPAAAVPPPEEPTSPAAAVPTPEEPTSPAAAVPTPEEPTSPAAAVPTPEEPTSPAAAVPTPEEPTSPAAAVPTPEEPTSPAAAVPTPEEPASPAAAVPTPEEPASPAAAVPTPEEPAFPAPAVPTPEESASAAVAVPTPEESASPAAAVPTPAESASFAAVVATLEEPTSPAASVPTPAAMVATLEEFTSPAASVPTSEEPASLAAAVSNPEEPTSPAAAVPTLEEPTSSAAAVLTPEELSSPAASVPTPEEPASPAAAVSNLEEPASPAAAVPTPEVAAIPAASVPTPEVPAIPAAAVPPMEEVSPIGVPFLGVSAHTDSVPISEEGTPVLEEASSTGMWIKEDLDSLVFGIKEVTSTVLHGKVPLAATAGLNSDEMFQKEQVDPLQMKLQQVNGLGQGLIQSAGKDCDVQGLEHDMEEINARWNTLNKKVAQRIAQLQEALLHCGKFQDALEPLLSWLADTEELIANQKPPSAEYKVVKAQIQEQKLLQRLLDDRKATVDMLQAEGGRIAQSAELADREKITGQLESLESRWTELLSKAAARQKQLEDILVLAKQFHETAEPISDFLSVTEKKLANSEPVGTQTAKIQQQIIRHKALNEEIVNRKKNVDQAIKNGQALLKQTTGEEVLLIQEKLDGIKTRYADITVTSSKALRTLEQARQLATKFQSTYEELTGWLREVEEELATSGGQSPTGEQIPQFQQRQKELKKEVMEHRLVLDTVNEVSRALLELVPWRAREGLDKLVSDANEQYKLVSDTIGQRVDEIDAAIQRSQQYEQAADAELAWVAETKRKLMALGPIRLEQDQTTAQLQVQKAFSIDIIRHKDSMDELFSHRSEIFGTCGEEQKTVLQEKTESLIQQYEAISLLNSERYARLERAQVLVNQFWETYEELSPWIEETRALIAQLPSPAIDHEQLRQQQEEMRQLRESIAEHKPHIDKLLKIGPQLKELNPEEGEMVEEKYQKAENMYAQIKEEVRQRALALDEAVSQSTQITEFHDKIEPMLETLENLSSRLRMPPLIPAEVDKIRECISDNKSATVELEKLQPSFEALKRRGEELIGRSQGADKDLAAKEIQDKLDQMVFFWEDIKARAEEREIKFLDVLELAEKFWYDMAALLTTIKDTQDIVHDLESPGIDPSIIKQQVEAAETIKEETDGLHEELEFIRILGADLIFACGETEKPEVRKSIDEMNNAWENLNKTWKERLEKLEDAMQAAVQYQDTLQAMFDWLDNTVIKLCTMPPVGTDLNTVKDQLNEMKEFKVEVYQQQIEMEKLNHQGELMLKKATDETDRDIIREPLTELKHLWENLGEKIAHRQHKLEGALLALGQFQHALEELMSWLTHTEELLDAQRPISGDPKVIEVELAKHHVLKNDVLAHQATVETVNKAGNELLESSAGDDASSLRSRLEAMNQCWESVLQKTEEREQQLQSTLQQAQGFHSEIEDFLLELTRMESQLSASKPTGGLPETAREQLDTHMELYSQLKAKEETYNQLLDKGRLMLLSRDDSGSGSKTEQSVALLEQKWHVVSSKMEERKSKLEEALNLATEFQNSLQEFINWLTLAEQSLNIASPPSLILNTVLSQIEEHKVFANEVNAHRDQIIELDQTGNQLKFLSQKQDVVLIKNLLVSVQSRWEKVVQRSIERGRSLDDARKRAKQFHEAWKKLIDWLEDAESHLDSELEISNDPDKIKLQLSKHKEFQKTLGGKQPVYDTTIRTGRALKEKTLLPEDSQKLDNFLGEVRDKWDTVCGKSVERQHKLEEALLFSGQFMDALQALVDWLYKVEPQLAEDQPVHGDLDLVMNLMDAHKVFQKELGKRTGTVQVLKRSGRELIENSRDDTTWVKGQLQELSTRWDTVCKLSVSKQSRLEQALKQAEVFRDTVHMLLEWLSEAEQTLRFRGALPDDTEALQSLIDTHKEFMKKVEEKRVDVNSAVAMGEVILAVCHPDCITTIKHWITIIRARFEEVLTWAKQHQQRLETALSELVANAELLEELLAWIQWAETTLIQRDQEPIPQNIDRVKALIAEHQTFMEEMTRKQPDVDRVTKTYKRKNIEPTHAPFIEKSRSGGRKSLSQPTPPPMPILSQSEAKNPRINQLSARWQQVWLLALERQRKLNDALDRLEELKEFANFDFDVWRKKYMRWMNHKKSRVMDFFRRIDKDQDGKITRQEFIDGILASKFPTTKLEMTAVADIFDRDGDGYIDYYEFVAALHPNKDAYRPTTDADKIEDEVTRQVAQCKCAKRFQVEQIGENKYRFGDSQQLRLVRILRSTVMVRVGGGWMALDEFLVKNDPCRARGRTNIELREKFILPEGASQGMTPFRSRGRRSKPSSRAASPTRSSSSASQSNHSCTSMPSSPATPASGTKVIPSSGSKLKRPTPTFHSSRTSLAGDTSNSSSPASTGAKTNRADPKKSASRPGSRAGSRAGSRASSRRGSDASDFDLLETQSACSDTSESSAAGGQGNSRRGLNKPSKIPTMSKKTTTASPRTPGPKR
UniProt Q8NFY9: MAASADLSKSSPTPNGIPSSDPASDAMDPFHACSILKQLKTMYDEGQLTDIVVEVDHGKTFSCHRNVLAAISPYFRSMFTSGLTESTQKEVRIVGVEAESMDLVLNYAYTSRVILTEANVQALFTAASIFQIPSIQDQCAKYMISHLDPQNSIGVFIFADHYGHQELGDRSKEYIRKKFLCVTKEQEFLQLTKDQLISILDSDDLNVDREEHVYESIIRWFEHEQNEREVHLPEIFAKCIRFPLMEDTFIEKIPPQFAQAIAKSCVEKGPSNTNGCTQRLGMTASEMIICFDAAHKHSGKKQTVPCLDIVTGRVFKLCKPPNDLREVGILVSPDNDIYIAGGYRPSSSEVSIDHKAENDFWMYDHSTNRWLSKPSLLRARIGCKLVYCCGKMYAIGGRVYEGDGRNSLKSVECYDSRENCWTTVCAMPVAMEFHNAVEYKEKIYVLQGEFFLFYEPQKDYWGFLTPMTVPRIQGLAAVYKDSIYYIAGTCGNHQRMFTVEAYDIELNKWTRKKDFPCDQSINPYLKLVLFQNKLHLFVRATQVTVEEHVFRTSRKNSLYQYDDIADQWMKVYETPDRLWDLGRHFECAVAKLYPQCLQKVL
UniProt Q9BW19: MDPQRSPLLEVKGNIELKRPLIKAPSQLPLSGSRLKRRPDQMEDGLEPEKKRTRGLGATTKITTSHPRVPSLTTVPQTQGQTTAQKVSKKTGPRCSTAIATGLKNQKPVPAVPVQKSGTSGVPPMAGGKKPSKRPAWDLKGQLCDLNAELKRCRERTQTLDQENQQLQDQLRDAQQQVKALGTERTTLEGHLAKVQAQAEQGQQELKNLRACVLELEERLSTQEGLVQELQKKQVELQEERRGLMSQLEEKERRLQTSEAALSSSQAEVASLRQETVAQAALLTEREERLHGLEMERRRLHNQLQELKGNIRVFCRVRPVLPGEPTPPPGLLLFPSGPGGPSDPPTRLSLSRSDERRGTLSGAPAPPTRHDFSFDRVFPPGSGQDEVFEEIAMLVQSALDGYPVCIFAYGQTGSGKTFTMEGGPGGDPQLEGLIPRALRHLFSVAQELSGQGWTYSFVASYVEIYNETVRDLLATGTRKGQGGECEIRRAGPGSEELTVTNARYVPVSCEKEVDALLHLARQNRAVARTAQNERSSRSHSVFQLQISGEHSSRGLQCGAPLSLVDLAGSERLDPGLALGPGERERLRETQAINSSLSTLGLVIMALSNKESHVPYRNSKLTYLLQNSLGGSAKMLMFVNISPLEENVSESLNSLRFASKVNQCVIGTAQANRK
UniProt Q4G0X4: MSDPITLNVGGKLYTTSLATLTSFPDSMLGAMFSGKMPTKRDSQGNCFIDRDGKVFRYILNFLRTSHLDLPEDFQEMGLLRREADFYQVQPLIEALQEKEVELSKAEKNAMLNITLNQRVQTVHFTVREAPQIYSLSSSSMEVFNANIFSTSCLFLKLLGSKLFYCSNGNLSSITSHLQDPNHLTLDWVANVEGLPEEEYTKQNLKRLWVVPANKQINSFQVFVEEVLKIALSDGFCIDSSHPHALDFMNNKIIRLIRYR
UniProt Q9BW62: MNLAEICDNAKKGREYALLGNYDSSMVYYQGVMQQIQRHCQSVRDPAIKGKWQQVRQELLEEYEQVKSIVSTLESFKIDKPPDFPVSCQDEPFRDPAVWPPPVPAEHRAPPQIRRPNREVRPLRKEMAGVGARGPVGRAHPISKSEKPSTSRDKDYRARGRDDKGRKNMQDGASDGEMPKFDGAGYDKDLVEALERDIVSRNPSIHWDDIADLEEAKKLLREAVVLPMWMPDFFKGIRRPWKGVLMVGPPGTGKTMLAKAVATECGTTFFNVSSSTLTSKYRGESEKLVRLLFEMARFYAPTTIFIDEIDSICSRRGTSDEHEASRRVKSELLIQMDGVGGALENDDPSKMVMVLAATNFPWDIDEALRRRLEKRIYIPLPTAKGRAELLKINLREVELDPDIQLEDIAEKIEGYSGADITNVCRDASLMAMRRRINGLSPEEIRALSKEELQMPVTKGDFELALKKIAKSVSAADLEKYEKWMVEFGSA
UniProt Q9H9V9: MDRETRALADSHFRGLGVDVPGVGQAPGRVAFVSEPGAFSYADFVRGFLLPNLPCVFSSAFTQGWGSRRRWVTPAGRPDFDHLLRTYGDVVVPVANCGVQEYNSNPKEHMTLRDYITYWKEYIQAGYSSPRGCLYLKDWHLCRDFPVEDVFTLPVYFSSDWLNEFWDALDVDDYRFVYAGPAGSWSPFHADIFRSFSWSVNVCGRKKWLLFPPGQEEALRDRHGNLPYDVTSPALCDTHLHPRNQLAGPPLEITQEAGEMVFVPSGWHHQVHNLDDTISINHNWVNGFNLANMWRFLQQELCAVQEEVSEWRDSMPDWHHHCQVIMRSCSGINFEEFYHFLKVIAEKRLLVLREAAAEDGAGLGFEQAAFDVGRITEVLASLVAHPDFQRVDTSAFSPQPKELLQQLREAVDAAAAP

compound: C1=CC=C(C=C1)C2=NC(=C(N2)C3=CC=NC=C3)C4=CC(=C(C=C4)Cl)O; assay: log2 fold change, soluble protein after heating vs DMSO (PISA); higher = thermal stabilisation; K562 cells, 10 uM, 30 min; active = over 0.2 and 3.5 SD of the protein, either way, in both replicates (recomputed)
How it was run: (§1)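 K562 cells at 2×10^6 cells/mL were treated with 10 μM compound for 30 min. Aliquots were heated for 3 min across 48°C-58°C, pooled, and extracted in PBS with 0.5% NP-40 at 4°C; soluble protein was the supernatant after 21,000xg for 90 min. Soluble protein was quantified by TMTpro 16plex LC-MS/MS with channel sums equalised, and reported as log2 fold change in thermal stability against DMSO controls, with values from duplicates.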

log2 fold change, inactive:
JUN (UniProt P05412) -0.254, KDF1 (UniProt Q8NAX2) -0.125, JMJD8 (UniProt Q96S16) 0.066, KATNBL1 (UniProt Q9H079) 0.015, KIAA0754 (UniProt O94854) 0.002, KBTBD8 (UniProt Q8NFY9) -0.054, KIF20B isoform 2 (UniProt Q96Q89) -0.177, KIF21A (UniProt H0YI78) 0.1, KIZ (UniProt Q2M2Z5) 0.103, KIF26A (UniProt Q9ULI4) 0.01, KDM6A (UniProt O15550) -0.038, KMT2A isoform 3 (UniProt Q03164) 0.013, KIF16B isoform 2 (UniProt Q96L93) 0.038, KLF1 (UniProt Q13351) 0.048, KIFC1 (UniProt Q9BW19) -0.035

compound: C1=CC=C2C(=C1)C3=NNC4=CC=CC(=C43)C2=O; assay: as above
How it was run: as §1

log2 fold change, inactive:
JMJD8 (UniProt Q96S16) -0.002, KCTD21 (UniProt Q4G0X4) -0.138, KIF13A isoform 4 (UniProt Q9H1H9) 0.021, KIF20A (UniProt O95235) 0.162, ITSN1 (UniProt Q15811) -0.01, KBTBD8 (UniProt Q8NFY9) 0.135, KIZ (UniProt Q2M2Z5) -0.01, KDM6A (UniProt O15550) 0.079, KATNAL1 (UniProt Q9BW62) -0.088, JMJD4 (UniProt Q9H9V9) 0.172, KLHL7 isoform 3 (UniProt Q8IXQ5) 0.056, KIF16B isoform 2 (UniProt Q96L93) -0.088, KLC1 isoform 3 (UniProt Q07866) -0.047, KIFC1 (UniProt Q9BW19) -0.051

compound: C1CCN(C1)C(=O)NC2=CC=CC(=C2)NC3=NC=C(C(=N3)NCCC4=CN=CN4)Br; assay: as above
How it was run: as §1

log2 fold change, inactive:
JUN (UniProt P05412) 0.069, KLHDC10 (UniProt Q6PID8) -0.184, KATNBL1 (UniProt Q9H079) 0.191, KDM1B (UniProt Q8NB78) -0.13, KIDINS220 isoform 2 (UniProt Q9ULH0) -0.008, KIAA0754 (UniProt O94854) 0.037, KBTBD8 (UniProt Q8NFY9) 0.074, KCTD1 (UniProt Q719H9) 0.044, KATNAL1 (UniProt Q9BW62) 0.233, KIF4A (UniProt O95239) -0.178, KLC3 isoform 3 (UniProt Q6P597) -0.054, KLHL42 (UniProt Q9P2K6) 0.017

compound: C1CN(CCC1(CC2=CC=C(C=C2)Cl)N)C3=NC=NC4=C3C=CN4; assay: as above
How it was run: as §1

log2 fold change, inactive:
JUN (UniProt P05412) -0.123, KLHDC10 (UniProt Q6PID8) 0.11, KATNBL1 (UniProt Q9H079) -0.06, KDM1B (UniProt Q8NB78) 0.204, KIDINS220 isoform 2 (UniProt Q9ULH0) 0.081, KIAA0754 (UniProt O94854) 0.041, KBTBD8 (UniProt Q8NFY9) -0.156, KCTD1 (UniProt Q719H9) 0.019, KATNAL1 (UniProt Q9BW62) -0.034, KIF4A (UniProt O95239) -0.462, KLC3 isoform 3 (UniProt Q6P597) 0.054, KLHL42 (UniProt Q9P2K6) -0.102
